Here are results for two substances from article PMC12210014.

By UniProt entry, the sequences of proteins in these tests, tags left out.
UniProt A0ACM8QJT5: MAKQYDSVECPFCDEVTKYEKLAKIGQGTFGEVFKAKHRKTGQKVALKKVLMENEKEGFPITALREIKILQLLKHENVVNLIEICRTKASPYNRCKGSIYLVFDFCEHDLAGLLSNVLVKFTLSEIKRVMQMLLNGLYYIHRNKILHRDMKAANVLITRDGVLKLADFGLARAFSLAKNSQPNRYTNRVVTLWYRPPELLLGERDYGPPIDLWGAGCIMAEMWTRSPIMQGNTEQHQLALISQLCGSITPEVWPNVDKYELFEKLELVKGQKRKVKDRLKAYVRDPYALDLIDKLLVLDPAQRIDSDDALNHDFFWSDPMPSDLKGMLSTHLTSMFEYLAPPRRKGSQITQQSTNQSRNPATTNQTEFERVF

The assay has as its target T1, HA-tagged FKBPL (pig) (UniProt A5A8W3).
T1 sequence: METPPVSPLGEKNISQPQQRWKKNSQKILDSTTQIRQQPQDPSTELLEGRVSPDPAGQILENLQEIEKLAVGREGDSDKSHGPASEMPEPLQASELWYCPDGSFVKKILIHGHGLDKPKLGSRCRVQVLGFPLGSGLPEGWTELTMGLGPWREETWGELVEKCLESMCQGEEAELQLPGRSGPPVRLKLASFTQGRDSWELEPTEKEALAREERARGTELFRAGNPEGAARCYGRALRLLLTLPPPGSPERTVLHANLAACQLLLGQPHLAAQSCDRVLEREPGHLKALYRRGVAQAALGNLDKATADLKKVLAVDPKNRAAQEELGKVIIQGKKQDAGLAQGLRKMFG
Kind of assay: co-IP; IP followed by western blotting, pig 8-cell embryos; three biological replicates.

No constants are given. Whether binding was seen depends on the method and setting. Binding seen in cells or lysates may run through a third protein. Some results given as binding are weak or reduced against the parent protein; the word gives no strength. Sequences can lack the tags named with a protein.

As for CDK9 (from UniProt A0ACM8QJT5 1-372), the binding entry is reported as “binds”.

Take HSP90AA1 (from UniProt O02705 1-733): the binding entry was “binds”.
